Test results from PMC5286509.
These are yes or no findings as the source states them, for the method shown. Binding seen in cells or lysates may run through a third protein. Tags and fused reporters may be left off the sequences shown.

Target: T1, myc-tagged TAF7L (TATA-binding protein (TBP)-associated factor 7-like) (UniProt Q5H9L4)
T1 sequence: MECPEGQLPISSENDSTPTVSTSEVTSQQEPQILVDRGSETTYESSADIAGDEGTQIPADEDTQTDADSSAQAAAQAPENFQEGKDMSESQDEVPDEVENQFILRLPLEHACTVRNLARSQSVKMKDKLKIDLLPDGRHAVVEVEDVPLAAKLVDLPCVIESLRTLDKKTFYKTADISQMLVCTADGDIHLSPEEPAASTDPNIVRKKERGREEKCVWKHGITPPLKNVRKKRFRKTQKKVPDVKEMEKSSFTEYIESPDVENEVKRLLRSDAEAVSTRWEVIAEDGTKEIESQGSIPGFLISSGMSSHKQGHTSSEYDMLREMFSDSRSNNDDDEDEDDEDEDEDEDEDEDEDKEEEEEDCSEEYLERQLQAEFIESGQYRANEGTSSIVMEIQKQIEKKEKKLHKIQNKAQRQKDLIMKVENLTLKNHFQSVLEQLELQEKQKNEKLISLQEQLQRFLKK
Experiment: co-IP; HEK293T cells co-transfected with GFP-CTCF, HA-BORIS and one of myc-TAF7L, myc-BRD4 or myc-RFX2; 1.5 mg total protein with anti-Myc, anti-HA or anti-GFP antibody overnight at 4 °C, Protein A/G Dynabeads, western blot

binding: no binding
B1: GFP-tagged CTCF (CCCTC-binding factor) (protein, UniProt P49711 1-727)
chain: MEGDAVEAIVEESETFIKGKERKTYQRRREGGQEEDACHLPQNQTDGGEVVQDVNSSVQMVMMEQLDPTLLQMKTEVMEGTVAPEAEAAVDDTQIITLQVVNMEEQPINIGELQLVQVPVPVTVPVATTSVEELQGAYENEVSKEGLAESEPMICHTLPLPEGFQVVKVGANGEVETLEQGELPPQEDPSWQKDPDYQPPAKKTKKTKKSKLRYTEEGKDVDVSVYDFEEEQQEGLLSEVNAEKVVGNMKPPKPTKIKKKGVKKTFQCELCSYTCPRRSNLDRHMKSHTDERPHKCHLCGRAFRTVTLLRNHLNTHTGTRPHKCPDCDMAFVTSGELVRHRRYKHTHEKPFKCSMCDYASVEVSKLKRHIRSHTGERPFQCSLCSYASRDTYKLKRHMRTHSGEKPYECYICHARFTQSGTMKMHILQKHTENVAKFHCPHCDTVIARKSDLGVHLRKQHSYIEQGKKCRYCDAVFHERYALIQHQKSHKNEKRFKCDQCDYACRQERHMIMHKRTHTGEKPYACSHCDKTFRQKQLLDMHFKRYHDPNFVPAAFVCSKCGKTFTRRNTMARHADNCAGPDGVEGENGGETKKSKRGRKRKMRSKKEDSSDSENAEPDLDDNEDEEEPAVEIEPEPEPQPVTPAPPPAKKRRGRPPGRTNQPKQNQPTAIIQVEDQNTGAIENIIVEVKKEPDAEPAEGEEEEAQPAATDAPNGDLTPEMILSMMDR
